According to paper PMC9459017, “Pharmacokinetic and pharmacodynamic similarity evaluation between an insulin glargine biosimilar product and Lantus® in healthy subjects: Pharmacokinetic parameters of both parent insulin glargine and M1 were used as endpoints” (Frontiers in Pharmacology, 2022):

Experiment: Quality of the clamps: blood glucose concentration statistics
Format: in vivo, human
Details: single 0.4 U/kg s.c., 24 h euglycemic clamp, healthy volunteers; for Mean blood glucose concentraion after dose: mean ± SD

Substance | Coefficient of variation of the blood glucose concentrations | Mean blood glucose concentraion after dose
Lantus [Reference drug] | 4.8% | 4.23 ± 0.20 mmol/L
recombinant insulin glargine [Test drug] | 5.0% | 4.27 ± 0.21 mmol/L
